Measured values taken from paper PMC4560804.
These are yes or no findings as the source states them, for the method shown. Binding seen in cells or lysates may run through a third protein. A result given as binding can be weak or reduced; the word gives no strength. Tags and fused reporters may be left off the sequences shown.

Chains of the proteins cited; added tags and fusions are not shown. Lines headed by an entry give the natural chain unless they say otherwise; changes in a name come on top.
UniProt Q388B7: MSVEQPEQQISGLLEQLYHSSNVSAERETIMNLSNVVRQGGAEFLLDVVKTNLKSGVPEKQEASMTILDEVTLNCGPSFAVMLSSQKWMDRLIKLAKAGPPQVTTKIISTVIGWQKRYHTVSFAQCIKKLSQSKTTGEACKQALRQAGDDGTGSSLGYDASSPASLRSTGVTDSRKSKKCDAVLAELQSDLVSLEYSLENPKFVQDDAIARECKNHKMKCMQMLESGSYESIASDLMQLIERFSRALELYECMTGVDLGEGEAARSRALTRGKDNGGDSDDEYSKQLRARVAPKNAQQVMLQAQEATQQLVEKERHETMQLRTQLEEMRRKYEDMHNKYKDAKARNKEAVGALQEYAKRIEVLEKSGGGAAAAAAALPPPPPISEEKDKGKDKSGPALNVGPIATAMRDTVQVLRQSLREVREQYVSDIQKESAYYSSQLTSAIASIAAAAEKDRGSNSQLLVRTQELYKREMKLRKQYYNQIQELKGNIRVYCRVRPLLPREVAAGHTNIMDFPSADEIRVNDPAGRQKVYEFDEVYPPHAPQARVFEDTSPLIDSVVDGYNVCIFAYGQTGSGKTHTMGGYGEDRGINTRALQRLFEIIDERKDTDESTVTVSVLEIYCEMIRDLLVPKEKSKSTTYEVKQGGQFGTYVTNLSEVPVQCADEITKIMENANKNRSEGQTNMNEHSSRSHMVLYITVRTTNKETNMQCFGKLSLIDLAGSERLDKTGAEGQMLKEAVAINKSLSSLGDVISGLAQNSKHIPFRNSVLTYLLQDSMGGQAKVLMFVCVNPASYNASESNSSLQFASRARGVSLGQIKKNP

Biological target: TbKIFC1 (C-terminal kinesin of Trypanosoma brucei) (T. brucei (endogenous in T. brucei cells)) (UniProt Q388B7)
Experiment: proximity ligation; Duolink ligation assay with anti-TbKIFC1 and anti-APOL1 antibodies on T. brucei after 1-h incubation with 10 ug/ml rAPOL1; signal means proximity below 40 nm; only the binder purified

B1: recombinant APOL1 (His6-tagged APOL1 E28-L398) (protein, UniProt O14791 28-398)
chain: EEAGARVQQNVPSGTDTGDPQSKPLGDWAAGTMDPESSIFIEDAIKYFKEKVSTQNLLLLLTDNEAWNGFVAAAELPRNEADELRKALDNLARQMIMKDKNWHDKGQQYRNWFLKEFPRLKSELEDNIRRLRALADGVQKVHKGTTIANVVSGSLSISSGILTLVGMGLAPFTEGGSLVLLEPGMELGITAALTGITSSTMDYGKKWWTQAQAHDLVIKSLDKLKEVREFLGENISNFLSLAGNTYQLTRGIGKDIRALRRARANLQSVPHASASRPRVTEPISAESGEQVERVNEPSILEMSRGVKLTDVAPVSFFLVLDVVYLVYESKHLHEGAKSETAEELKKVAQELEEKLNILNNNYKILQADQEL
With B1 the binding was “binds”.
